# Reference: the supplement of paper PMC8728848
# This is one part of the list.
# B1: SHCBP1-GST (Homo sapiens), Q8NEM2 (protein)
# chain: MADGSLTGGGLEAAAMAPERMGWAVEQELASLEKGLFQDEDSCSDCSYRDKPGSSLQSFMPEGKTFFPEIFQTNQLLFYERFRAYQDYILADCKASEVQEFTAEFLEKVLEPSGWRAVWHTNVFKVLVEITDVDFAALKAVVRLAEPYLCDSQVSTFTMECMKELLDLKEHRLPLQELWVVFDDSGVFDQTALAIEHVRFFYQNIWRSWDEEEEDEYDYFVRCVEPRLRLHYDILEDRVPSGLIVDYHNLLSQCEESYRKFLNLRSSLSNCNSDSEQENISMVEGLKLYSEMEQLKQKLKLIENPLLRYVFGYQKNSNIQAKGVRSSGQKITHVVSSTMMAGLLRSLLTDRLCQEPGEEEREIQFHSDPLSAINACFEGDTVIVCPGHYVVHGTFSIADSIELEGYGLPDDIVIEKRGKGDTFVDCTGADIKISGIKFVQHDAVEGILIVHRGKTTLENCVLQCETTGVTVRTSAEFLMKNSDLYGAKGAGIEIYPGSQCTLSDNGIHHCKEGILIKDFLDEHYDIPKISMVNNIIHNNEGYGVVLVKPTIFSDLQENAEDGTEENKALKIQTSGEPDVAERVDLEELIECATGKMELCARTDPSEQVEGNCEIVNELIAASTQKGQIKKKRLSELGITQADDNLMSQEMFVGIVGNQFKWNGKGSFGTFLF
# What was measured:
# Assay in all cases: glycan array binding signal (z-score within array); higher = stronger binding
# Details in all cases: glycan notation: IUPAC condensed, linker removed
# [1] = target: Neu5Ac(a2-6)Gal(b1-4)GlcNAc(b1-2)Man(a1-3)[GlcNAc(b1-4)][Neu5Ac(a2-6)Gal(b1-4)GlcNAc(b1-2)Man(a1-6)]Man(b1-4)GlcNAc(b1-4)GlcNAc
# Method in brief: (§1)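 Glycan array data came from 3228 arrays in the Consortium for Functional Glycomics database, and only arrays with an available protein sequence were kept. Glycan names were put into IUPAC-condensed notation, and columns mapping to the same glycan were averaged. The binding signal is a within-array Z-score, averaged across arrays of one protein sequence run at different concentrations or buffers and across linkers. A negative Z-score can be read as non-binding.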
# [2] = target: Neu5Ac(a2-6)Gal(b1-4)GlcNAc(b1-2)Man(a1-3)[Man(a1-6)]Man(b1-4)GlcNAc(b1-4)GlcNAc
# Method in brief: as §1
# [3] = target: Neu5Ac(a2-6)Gal(b1-4)GlcNAc(b1-2)Man(a1-3)[Neu5Ac(a2-3)Gal(b1-4)GlcNAc(b1-2)Man(a1-6)]Man(b1-4)GlcNAc(b1-4)GlcNAc
# Method in brief: as §1
# [4] = target: Neu5Ac(a2-6)Gal(b1-4)GlcNAc(b1-2)Man(a1-3)[Neu5Ac(a2-6)Gal(b1-4)GlcNAc(b1-2)Man(a1-6)]Man(b1-4)GlcNAc(b1-4)GlcNAc
# Method in brief: as §1
# [5] = target: Neu5Ac(a2-6)Gal(b1-4)GlcNAc(b1-2)Man(a1-3)[Neu5Ac(a2-6)Gal(b1-4)GlcNAc(b1-2)Man(a1-6)]Man(b1-4)GlcNAc(b1-4)[Fuc(a1-6)]GlcNAc
# Method in brief: as §1
# [6] = target: Neu5Ac(a2-6)Gal(b1-4)GlcNAc(b1-2)Man(a1-6)Man(b1-4)GlcNAc(b1-4)GlcNAc
# Method in brief: as §1
# [7] = target: Neu5Ac(a2-6)Gal(b1-4)GlcNAc(b1-2)Man(a1-6)[Gal(b1-4)GlcNAc(b1-2)Man(a1-3)]Man(b1-4)GlcNAc(b1-4)GlcNAc
# Method in brief: as §1
# [8] = target: Neu5Ac(a2-6)Gal(b1-4)GlcNAc(b1-2)Man(a1-6)[GlcNAc(b1-2)Man(a1-3)]Man(b1-4)GlcNAc(b1-4)GlcNAc
# Method in brief: as §1
# [9] = target: Neu5Ac(a2-6)Gal(b1-4)GlcNAc(b1-2)Man(a1-6)[Man(a1-3)]Man(b1-4)GlcNAc(b1-4)GlcNAc
# Method in brief: as §1
# [10] = target: Neu5Ac(a2-6)Gal(b1-4)GlcNAc(b1-2)[Neu5Ac(a2-6)Gal(b1-4)GlcNAc(b1-4)]Man(a1-3)[GlcNAc(b1-4)][Neu5Ac(a2-6)Gal(b1-4)GlcNAc(b1-2)[Neu5Ac(a2-6)Gal(b1-4)GlcNAc(b1-6)]Man(a1-6)]Man(b1-4)GlcNAc(b1-4)GlcNAc
# Method in brief: as §1
# [11] = target: Neu5Ac(a2-6)Gal(b1-4)GlcNAc(b1-2)[Neu5Ac(a2-6)Gal(b1-4)GlcNAc(b1-4)]Man(a1-3)[GlcNAc(b1-4)][Neu5Ac(a2-6)Gal(b1-4)GlcNAc(b1-4)Man(a1-6)]Man(b1-4)GlcNAc(b1-4)GlcNAc
# Method in brief: as §1
# [12] = target: Neu5Ac(a2-6)Gal(b1-4)GlcNAc(b1-2)[Neu5Ac(a2-6)Gal(b1-4)GlcNAc(b1-6)]Man(a1-6)[Neu5Ac(a2-6)Gal(b1-4)GlcNAc(b1-2)Man(a1-3)][GlcNAc(b1-4)]Man(b1-4)GlcNAc(b1-4)GlcNAc
# Method in brief: as §1
# [13] = target: Neu5Ac(a2-6)Gal(b1-4)GlcNAc(b1-3)Gal(b1-3)GlcNAc
# Method in brief: as §1
# [14] = target: Neu5Ac(a2-6)Gal(b1-4)GlcNAc(b1-3)Gal(b1-4)GlcNAc
# Method in brief: as §1
# [15] = target: Neu5Ac(a2-6)Gal(b1-4)GlcNAc(b1-3)Gal(b1-4)GlcNAc(b1-2)Man(a1-3)[Neu5Ac(a2-6)Gal(b1-4)GlcNAc(b1-3)Gal(b1-4)GlcNAc(b1-2)Man(a1-6)]GalNAc
# Method in brief: as §1
# [16] = target: Neu5Ac(a2-6)Gal(b1-4)GlcNAc(b1-3)Gal(b1-4)GlcNAc(b1-3)Gal(b1-4)GlcNAc
# Method in brief: as §1
# [17] = target: Neu5Ac(a2-6)Gal(b1-4)GlcNAc(b1-3)Gal(b1-4)GlcNAc(b1-3)Gal(b1-4)GlcNAc(b1-2)Man(a1-3)[Neu5Ac(a2-6)Gal(b1-4)GlcNAc(b1-3)Gal(b1-4)GlcNAc(b1-3)Gal(b1-4)GlcNAc(b1-2)Man(a1-6)]GalNAc
# Method in brief: as §1
# [18] = target: Neu5Ac(a2-6)Gal(b1-4)GlcNAc(b1-3)Gal(b1-4)GlcNAc(b1-3)GalNAc
# Method in brief: as §1
# [19] = target: Neu5Ac(a2-6)Gal(b1-4)GlcNAc(b1-3)Gal(b1-4)GlcNAc(b1-3)[Neu5Ac(a2-6)Gal(b1-4)GlcNAc(b1-3)Gal(b1-4)GlcNAc(b1-6)]GalNAc
# Method in brief: as §1
# [20] = target: Neu5Ac(a2-6)Gal(b1-4)GlcNAc(b1-3)Gal(b1-4)GlcNAc(b1-6)[Gal(b1-3)]GalNAc
# Method in brief: as §1
# [21] = target: Neu5Ac(a2-6)Gal(b1-4)GlcNAc(b1-3)Gal(b1-4)[Fuc(a1-3)]GlcNAc(b1-3)Gal(b1-4)[Fuc(a1-3)]GlcNAc
# Method in brief: as §1
# [22] = target: Neu5Ac(a2-6)Gal(b1-4)GlcNAc(b1-3)GalNAc
# Method in brief: as §1
# [23] = target: Neu5Ac(a2-6)Gal(b1-4)GlcNAc(b1-3)[Neu5Ac(a2-6)Gal(b1-4)GlcNAc(b1-6)]GalNAc
# Method in brief: as §1
# [24] = target: Neu5Ac(a2-6)Gal(b1-4)GlcNAc(b1-6)GalNAc
# Method in brief: as §1
# [25] = target: Neu5Ac(a2-6)Gal(b1-4)GlcNAc(b1-6)[Gal(b1-3)GlcNAc(b1-3)]Gal(b1-4)Glc
# Method in brief: as §1
# [26] = target: Neu5Ac(a2-6)Gal(b1-4)GlcNAc(b1-6)[Gal(b1-3)]GalNAc
# Method in brief: as §1
# [27] = target: Neu5Ac(a2-6)Gal(b1-4)GlcNAc6S
# Method in brief: as §1
# Neu5Ac(a2-6)GalNAc = target: Neu5Ac(a2-6)GalNAc
# Method in brief: as §1
# [28] = target: Neu5Ac(a2-6)GalNAc(b1-4)GlcNAc
# Method in brief: as §1
# [29] = target: Neu5Ac(a2-6)GalNAc(b1-4)GlcNAc6S
# Method in brief: as §1
# [30] = target: Neu5Ac(a2-6)GlcNAc(b1-4)GlcNAc
# Method in brief: as §1
binder,measurement,setting,value
B1,glycan array binding signal (z-score),[1],-0.538
same,glycan array binding signal (z-score),[2],-0.577
same,glycan array binding signal (z-score),[3],0.084
same,glycan array binding signal (z-score),[4],0.513
same,glycan array binding signal (z-score),[5],-0.177
same,glycan array binding signal (z-score),[6],-0.206
same,glycan array binding signal (z-score),[7],-0.587
same,glycan array binding signal (z-score),[8],-0.168
same,glycan array binding signal (z-score),[9],0.205
same,glycan array binding signal (z-score),[10],-0.645
same,glycan array binding signal (z-score),[11],-0.458
same,glycan array binding signal (z-score),[12],-0.249
same,glycan array binding signal (z-score),[13],-0.24
same,glycan array binding signal (z-score),[14],-1.12
same,glycan array binding signal (z-score),[15],0.908
same,glycan array binding signal (z-score),[16],0.126
same,glycan array binding signal (z-score),[17],2.65
same,glycan array binding signal (z-score),[18],-0.755
same,glycan array binding signal (z-score),[19],-0.278
same,glycan array binding signal (z-score),[20],-0.375
same,glycan array binding signal (z-score),[21],0.324
same,glycan array binding signal (z-score),[22],2.41
same,glycan array binding signal (z-score),[23],-0.196
same,glycan array binding signal (z-score),[24],-0.322
same,glycan array binding signal (z-score),[25],-0.621
same,glycan array binding signal (z-score),[26],-1.17
same,glycan array binding signal (z-score),[27],-0.261
same,glycan array binding signal (z-score),Neu5Ac(a2-6)GalNAc,-0.726
same,glycan array binding signal (z-score),[28],-1.02
same,glycan array binding signal (z-score),[29],0.128
same,glycan array binding signal (z-score),[30],-0.776

# Given tab-delimited: part of the list above.
binder	measurement	setting	value
B1	glycan array binding signal (z-score)	[10]	-0.645
same	glycan array binding signal (z-score)	[11]	-0.458
same	glycan array binding signal (z-score)	[12]	-0.249
same	glycan array binding signal (z-score)	[13]	-0.24
same	glycan array binding signal (z-score)	[14]	-1.12
same	glycan array binding signal (z-score)	[15]	0.908
